Results: the supplement of paper PMC7666118
The list shows a part of the results.

By UniProt entry, the sequences of proteins in these tests, tags left out. Where a name states a change or a piece, a line headed by the entry shows the natural chain unless it says otherwise.
UniProt Q9NVZ3: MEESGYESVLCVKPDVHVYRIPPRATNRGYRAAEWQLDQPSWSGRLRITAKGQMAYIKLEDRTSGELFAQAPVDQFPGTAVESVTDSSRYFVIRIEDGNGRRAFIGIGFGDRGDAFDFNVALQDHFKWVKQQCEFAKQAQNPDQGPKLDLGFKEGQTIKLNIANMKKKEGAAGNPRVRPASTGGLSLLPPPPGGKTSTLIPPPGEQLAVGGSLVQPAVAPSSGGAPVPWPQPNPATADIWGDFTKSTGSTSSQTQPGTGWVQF
UniProt Q9UHK0: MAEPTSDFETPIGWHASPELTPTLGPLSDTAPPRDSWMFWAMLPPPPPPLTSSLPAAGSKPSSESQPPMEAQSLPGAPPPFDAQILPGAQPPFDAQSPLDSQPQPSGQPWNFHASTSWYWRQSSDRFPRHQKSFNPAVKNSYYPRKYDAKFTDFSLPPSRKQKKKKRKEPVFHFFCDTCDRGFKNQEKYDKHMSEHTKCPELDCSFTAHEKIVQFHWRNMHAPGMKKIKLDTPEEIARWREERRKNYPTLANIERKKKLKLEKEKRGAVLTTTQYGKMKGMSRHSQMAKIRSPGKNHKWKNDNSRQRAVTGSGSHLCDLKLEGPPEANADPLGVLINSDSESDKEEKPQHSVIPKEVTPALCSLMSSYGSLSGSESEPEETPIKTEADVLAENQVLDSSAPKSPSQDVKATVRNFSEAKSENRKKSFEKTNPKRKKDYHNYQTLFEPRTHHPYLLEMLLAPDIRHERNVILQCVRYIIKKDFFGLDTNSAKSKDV
UniProt Q8NFH4: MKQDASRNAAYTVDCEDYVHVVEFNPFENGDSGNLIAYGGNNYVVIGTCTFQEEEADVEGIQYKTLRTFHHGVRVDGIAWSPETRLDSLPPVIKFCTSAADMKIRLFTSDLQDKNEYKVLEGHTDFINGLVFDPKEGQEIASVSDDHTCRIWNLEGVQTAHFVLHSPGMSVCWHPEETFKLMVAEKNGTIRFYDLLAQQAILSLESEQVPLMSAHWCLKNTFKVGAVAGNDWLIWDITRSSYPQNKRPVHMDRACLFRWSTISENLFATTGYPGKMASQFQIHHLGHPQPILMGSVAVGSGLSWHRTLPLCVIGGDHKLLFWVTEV
UniProt Q9HBL8: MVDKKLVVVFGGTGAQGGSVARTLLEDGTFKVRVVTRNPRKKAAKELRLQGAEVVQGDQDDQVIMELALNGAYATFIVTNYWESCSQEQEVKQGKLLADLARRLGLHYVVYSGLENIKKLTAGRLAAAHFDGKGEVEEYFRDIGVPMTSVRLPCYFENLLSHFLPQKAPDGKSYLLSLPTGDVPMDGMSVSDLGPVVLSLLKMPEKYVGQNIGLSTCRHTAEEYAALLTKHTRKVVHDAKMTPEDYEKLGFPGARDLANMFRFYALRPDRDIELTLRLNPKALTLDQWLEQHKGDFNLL
UniProt Q9BVL2: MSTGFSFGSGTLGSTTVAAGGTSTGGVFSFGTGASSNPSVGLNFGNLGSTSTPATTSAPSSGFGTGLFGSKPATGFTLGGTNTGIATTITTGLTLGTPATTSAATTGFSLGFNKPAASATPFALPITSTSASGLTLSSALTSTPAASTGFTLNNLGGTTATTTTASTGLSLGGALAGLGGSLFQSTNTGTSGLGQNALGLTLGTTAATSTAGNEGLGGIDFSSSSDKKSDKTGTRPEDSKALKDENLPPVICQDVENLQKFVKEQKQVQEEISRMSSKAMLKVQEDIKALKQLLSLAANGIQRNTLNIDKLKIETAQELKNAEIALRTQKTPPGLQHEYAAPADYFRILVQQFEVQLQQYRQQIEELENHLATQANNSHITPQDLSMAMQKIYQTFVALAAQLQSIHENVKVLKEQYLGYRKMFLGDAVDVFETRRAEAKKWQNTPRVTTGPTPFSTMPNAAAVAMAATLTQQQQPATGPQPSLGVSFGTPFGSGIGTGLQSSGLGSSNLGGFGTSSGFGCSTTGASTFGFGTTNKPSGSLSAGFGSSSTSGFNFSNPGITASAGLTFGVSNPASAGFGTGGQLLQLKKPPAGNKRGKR
UniProt Q9BYT8, whole entry, looked up: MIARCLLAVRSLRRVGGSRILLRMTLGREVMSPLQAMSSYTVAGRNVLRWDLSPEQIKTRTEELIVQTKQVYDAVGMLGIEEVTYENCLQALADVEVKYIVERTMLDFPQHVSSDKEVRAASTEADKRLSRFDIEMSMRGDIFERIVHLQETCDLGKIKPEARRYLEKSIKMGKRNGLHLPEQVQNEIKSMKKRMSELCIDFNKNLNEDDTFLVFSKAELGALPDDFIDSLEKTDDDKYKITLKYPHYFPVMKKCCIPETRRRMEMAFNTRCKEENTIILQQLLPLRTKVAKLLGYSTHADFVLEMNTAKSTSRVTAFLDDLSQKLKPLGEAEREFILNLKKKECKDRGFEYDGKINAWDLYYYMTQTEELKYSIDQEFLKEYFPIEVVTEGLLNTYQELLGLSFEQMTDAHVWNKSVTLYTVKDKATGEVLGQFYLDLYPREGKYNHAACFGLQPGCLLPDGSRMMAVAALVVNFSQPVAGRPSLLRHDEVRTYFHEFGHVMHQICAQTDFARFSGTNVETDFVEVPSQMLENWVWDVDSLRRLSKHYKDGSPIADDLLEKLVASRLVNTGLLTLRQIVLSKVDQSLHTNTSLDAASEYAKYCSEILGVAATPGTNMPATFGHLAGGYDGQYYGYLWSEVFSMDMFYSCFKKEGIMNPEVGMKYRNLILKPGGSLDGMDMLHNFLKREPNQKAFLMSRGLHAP
UniProt Q9Y6M9, whole entry: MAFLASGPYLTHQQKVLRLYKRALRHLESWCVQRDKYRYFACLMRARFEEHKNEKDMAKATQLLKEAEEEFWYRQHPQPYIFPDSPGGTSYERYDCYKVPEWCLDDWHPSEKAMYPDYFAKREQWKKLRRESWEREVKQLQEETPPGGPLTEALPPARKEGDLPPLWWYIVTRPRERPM
UniProt Q9Y6K5: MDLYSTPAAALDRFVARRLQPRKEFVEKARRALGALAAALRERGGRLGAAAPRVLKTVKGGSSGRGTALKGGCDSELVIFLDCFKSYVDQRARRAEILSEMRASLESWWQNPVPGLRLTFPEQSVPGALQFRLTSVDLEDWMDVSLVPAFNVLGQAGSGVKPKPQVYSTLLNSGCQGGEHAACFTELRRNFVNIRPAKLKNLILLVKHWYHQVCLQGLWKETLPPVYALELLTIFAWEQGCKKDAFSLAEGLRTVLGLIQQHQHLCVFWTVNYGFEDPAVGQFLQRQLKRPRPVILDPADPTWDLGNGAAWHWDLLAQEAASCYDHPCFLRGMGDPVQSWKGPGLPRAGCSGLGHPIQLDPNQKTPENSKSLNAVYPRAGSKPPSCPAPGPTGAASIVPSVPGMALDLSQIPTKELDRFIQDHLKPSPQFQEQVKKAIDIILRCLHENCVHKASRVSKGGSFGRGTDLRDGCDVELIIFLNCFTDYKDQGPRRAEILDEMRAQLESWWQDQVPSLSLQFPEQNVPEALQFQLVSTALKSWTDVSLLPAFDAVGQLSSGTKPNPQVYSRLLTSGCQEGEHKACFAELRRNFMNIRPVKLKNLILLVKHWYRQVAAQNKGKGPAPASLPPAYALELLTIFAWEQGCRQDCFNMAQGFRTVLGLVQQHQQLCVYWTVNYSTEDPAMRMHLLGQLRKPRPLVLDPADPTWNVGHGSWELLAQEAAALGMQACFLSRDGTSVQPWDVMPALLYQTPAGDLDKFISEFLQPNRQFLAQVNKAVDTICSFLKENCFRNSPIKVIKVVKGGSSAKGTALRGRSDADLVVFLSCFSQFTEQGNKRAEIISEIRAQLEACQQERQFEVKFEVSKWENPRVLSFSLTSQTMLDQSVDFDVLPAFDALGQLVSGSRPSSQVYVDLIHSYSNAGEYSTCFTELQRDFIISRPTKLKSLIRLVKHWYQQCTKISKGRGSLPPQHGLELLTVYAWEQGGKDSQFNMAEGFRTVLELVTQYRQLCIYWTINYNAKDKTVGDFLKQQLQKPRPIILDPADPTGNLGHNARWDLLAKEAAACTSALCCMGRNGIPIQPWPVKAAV
UniProt Q9NPJ8: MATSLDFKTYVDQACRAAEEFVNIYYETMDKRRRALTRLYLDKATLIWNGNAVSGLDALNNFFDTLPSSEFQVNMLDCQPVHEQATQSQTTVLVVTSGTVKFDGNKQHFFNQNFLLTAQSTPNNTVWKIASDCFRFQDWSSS
UniProt Q9Y697: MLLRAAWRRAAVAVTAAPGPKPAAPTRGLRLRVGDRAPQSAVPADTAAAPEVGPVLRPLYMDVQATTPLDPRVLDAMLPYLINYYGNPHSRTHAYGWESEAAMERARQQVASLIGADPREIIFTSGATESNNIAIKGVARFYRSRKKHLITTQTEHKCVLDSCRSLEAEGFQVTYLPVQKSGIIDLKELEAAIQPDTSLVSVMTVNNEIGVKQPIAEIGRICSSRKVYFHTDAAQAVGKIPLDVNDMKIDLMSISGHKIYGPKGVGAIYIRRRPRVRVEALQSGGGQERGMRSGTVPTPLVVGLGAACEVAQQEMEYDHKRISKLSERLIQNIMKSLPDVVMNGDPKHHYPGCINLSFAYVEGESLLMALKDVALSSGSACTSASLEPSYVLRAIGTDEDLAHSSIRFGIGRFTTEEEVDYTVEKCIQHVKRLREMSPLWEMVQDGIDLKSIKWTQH
UniProt P43490: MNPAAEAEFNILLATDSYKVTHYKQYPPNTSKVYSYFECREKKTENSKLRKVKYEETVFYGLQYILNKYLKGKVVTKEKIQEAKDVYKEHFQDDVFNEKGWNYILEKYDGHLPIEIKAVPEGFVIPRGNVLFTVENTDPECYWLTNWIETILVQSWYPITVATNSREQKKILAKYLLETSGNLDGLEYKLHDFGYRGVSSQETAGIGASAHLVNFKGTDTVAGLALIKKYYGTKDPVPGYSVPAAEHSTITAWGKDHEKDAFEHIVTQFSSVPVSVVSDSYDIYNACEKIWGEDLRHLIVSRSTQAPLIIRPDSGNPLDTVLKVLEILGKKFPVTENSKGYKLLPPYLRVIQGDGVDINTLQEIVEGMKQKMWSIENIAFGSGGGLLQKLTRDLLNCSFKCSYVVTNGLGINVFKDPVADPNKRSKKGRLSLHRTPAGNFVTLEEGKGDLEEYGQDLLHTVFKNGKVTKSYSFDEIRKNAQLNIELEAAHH
UniProt P35240: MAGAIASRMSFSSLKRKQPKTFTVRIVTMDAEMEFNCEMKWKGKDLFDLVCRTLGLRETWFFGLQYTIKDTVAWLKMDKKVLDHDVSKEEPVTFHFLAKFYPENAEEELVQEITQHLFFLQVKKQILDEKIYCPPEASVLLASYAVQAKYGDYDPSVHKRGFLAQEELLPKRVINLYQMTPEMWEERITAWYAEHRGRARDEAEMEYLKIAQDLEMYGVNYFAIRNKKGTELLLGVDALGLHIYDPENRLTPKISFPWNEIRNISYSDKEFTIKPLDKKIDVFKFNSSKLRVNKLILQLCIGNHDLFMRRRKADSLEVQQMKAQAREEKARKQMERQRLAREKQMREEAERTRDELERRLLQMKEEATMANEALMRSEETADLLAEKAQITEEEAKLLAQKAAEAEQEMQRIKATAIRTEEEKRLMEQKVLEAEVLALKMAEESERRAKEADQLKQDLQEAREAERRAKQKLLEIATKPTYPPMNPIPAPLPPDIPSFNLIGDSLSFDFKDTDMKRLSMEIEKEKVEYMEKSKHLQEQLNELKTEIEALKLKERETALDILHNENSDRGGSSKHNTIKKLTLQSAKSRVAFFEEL
UniProt O95298, whole entry: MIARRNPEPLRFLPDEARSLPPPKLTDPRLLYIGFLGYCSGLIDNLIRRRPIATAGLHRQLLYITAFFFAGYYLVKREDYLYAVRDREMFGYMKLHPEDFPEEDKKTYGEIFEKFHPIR
UniProt Q13952: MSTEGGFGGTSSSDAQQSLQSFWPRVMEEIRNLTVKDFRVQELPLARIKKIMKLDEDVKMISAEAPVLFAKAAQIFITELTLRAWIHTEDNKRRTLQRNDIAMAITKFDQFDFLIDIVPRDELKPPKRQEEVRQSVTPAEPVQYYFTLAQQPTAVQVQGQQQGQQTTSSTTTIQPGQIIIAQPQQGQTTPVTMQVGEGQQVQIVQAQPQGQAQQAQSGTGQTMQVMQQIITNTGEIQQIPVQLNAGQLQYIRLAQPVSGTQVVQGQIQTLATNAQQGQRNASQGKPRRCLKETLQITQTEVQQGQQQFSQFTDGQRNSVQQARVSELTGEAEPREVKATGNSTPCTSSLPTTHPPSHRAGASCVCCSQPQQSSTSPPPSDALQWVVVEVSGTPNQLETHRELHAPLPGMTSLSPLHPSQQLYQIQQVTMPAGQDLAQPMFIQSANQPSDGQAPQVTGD
UniProt Q9NXX6: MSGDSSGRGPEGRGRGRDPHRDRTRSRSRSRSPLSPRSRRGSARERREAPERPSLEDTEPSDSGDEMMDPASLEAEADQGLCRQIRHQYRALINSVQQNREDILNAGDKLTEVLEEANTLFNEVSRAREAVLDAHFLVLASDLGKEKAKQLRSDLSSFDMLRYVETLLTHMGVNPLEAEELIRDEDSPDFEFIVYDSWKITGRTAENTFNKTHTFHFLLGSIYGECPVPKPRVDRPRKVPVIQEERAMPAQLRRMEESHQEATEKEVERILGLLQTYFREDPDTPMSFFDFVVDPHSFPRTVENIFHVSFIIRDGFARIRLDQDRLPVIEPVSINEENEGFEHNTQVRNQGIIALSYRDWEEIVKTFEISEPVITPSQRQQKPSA

Compound: COc1ccc(Cn2ccc3cc(C)c(C(=O)NO)cc32)cc1
Assay: dose-dependent thermal stabilisation call (2D-TPP, DLPTP, 10% FDR) (binary (1 = stabilised)); higher = stabilised by the compound
Conditions: system: HL-60 intact cells; concentration range 0.04-10 µM
Protocol: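 2D thermal proteome profiling in intact HL-60 cells treated with BRD-3811 (0, 0.04, 0.29, 2, 10 uM) for 90 min at 37 C, then heated 3 min at one of 12 temperatures (42-63.9 C). Soluble protein was quantified by TMT10 MS. The value is the DLPTP call of the paper: dose-dependent thermal stabilisation over all temperatures at 10% FDR (F-test of a dose-response against a flat model); one experiment, one call per tested protein.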

Target | dose-dependent thermal stabilisation call
NECAP2 (UniProt Q9NVZ3) | inactive: 0
NT5C1B (UniProt Q96P26) | inactive: 0
NDC80 (UniProt O14777) | inactive: 0
NUP62 (UniProt P37198) | inactive: 0
NUFIP1 (UniProt Q9UHK0) | inactive: 0
NUDT18 (UniProt Q6ZVK8) | inactive: 0
NUP37 (UniProt Q8NFH4) | inactive: 0
NLE1 (UniProt Q9NVX2) | inactive: 0
NOM1 (UniProt Q5C9Z4) | inactive: 0
NMRAL1 (UniProt Q9HBL8) | inactive: 0
NFIA (UniProt Q12857) | inactive: 0
NFKBIE (UniProt O00221) | inactive: 0
NPC1 (UniProt O15118) | inactive: 0
NOP2 (UniProt P46087) | inactive: 0
NUPL1 (UniProt Q9BVL2) | inactive: 0
NLN (UniProt Q9BYT8) | active: 1
NDUFB9 (UniProt Q9Y6M9) | inactive: 0
NNT (UniProt Q13423) | inactive: 0
NIF3L1 (UniProt Q9GZT8) | inactive: 0
OAS3 (UniProt Q9Y6K5) | inactive: 0

Target | dose-dependent thermal stabilisation call
NQO2 (UniProt P16083) | inactive: 0
NCSTN (UniProt Q92542) | inactive: 0
NDUFB10 (UniProt O96000) | inactive: 0
NXT2 (UniProt Q9NPJ8) | inactive: 0
NFS1 (UniProt Q9Y697) | inactive: 0
NT5C3 (UniProt Q9H0P0) | inactive: 0
NDUFAF1 (UniProt Q9Y375) | inactive: 0
NDUFB6 (UniProt O95139) | inactive: 0
NMD3 (UniProt Q96D46) | inactive: 0
NAMPT (UniProt P43490) | inactive: 0
NSDHL (UniProt Q15738) | active: 1
NF2 (UniProt P35240) | inactive: 0
NDUFC2 (UniProt O95298) | inactive: 0
NIT1 (UniProt Q86X76) | inactive: 0
NOP16 (UniProt Q9Y3C1) | inactive: 0
NPLOC4 (UniProt Q8TAT6) | inactive: 0
NCBP2 (UniProt P52298) | inactive: 0
NAT12 (UniProt Q147X3) | inactive: 0
NFYC (UniProt Q13952) | inactive: 0
NSMCE4A (UniProt Q9NXX6) | inactive: 0

Reformatted in markdown: part of the list above

| Target | dose-dependent thermal stabilisation call |
| --- | --- |
| NDUFB9 (UniProt Q9Y6M9) | inactive: 0 |
| NNT (UniProt Q13423) | inactive: 0 |
